Assay results reported in PubChem BioAssay AID1656 (Sanford-Burnham Center for Chemical Genomics, 2009).
Where “and” joins values, the source holds several entries; their conditions need not be identical. Equal values may be shown once. This is one part of the list. Some salts or complexes appear as unconnected parts, following the source record.

Assay: inhibitors of hepatocyte lipid droplet formation, primary screen, imaging, high-throughput imaging, BODIPY stain (AID 1656);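 further: cells counted across two imaged fields per well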
Conditions: AML12 mouse hepatocytes, oleate lipid droplets, measured here: cell count, cytotoxicity flag, at 6.5 µM

| Structure (SMILES) | cell count |
| --- | --- |
| O=[As](O)(c1ccccc1)c1ccc(O)cc1 | 575 cells |
| Cc1cc(-c2cccc3ccccc23)c(C)cn1.O=[N+]([O-])c1cc([N+](=O)[O-])c(O)c([N+](=O)[O-])c1 | 735 cells |
| O=[N+]([O-])c1cc([N+](=O)[O-])c(NCC2CCS(=O)(=O)C2)c([N+](=O)[O-])c1 (stereo unspecified) | 624 cells |
| O=[N+]([O-])c1ccc(O)c(/C=N/Nc2ccc([N+](=O)[O-])cc2[N+](=O)[O-])c1 | 856 cells |
| O=[N+]([O-])c1ccc(OP2(=O)COCCO2)cc1 (stereo unspecified) | 661 cells |
| CC(=O)NC(SC(=S)N(C)C)C(Cl)(Cl)Cl (stereo unspecified) | 744 cells |
| O=[N+]([O-])c1ncn(CCn2cnc([N+](=O)[O-])n2)n1 | 707 cells |
| O=C(OC1CN2CCC1CC2)c1cccc(Cl)c1 (stereo unspecified) | 787 cells |
| C(Cc1nn[nH]n1)Cc1nn[nH]n1 | 657 cells |
| Nc1ccc([As](=O)(O)c2ccc([N+](=O)[O-])cc2)cc1 | 733 cells |
| O=P(Nc1ccccn1)(c1ccc(Br)cc1)c1ccc(Br)cc1 | 622 cells |
| CN(C)C1(CNC(=O)c2ccc(Cl)c(S(N)(=O)=O)c2)CCCCC1 | 860 cells |
| COc1ccc(NP(C)(=O)Oc2ccccc2OC)cc1 (stereo unspecified) | 676 cells |
| CN(C)CCOC(=O)C(O)(c1ccccc1)C1CCCCC1 (stereo unspecified) | 724 cells |
| O=P(Nc1nc2ccccc2s1)(c1ccccc1)c1ccccc1 | 781 cells |
| C[C@H]1OP(=O)(Oc2ccccc2)[C@H](O)[C@H](O)[C@H]1N=[N+]=[N-] (stereo partly specified) | 666 cells |
| CP(=O)(Nc1ccc2c(c1)OCCO2)Oc1ccccc1 (stereo unspecified) | 753 cells |
| Cc1ccccc1NP(C)(=O)Nc1ccccc1C | 762 cells |
| CC(C)C(=O)NC(Sc1ccccc1)C(Cl)(Cl)Cl (stereo unspecified) | 627 cells |
| O=P(Nc1nccs1)(c1ccccc1)c1ccccc1 | 763 cells |
| CP(=O)(Nc1ccc(SC(F)(F)F)cc1)Oc1ccc(F)cc1 (stereo unspecified) | 693 cells |
| c1nnnn1CCn1cnnn1 | 746 cells |
| CCOP(C)(=S)SCC(=O)NC(C)(CC)C(=O)O (stereo unspecified) | 676 cells |
| O=C(OCCN1CCN(CCOCc2ccccc2)CC1)C(O)(c1ccccc1)c1ccccc1 | 621 cells |

| Structure (SMILES) | cell count |
| --- | --- |
| C[C@H]1OP(=O)(Oc2ccccc2)C[C@@H]2O[C@@H]21 (stereo partly specified) | 705 cells |
| C[C@@H]1C=CCP(=O)(Oc2ccccc2)O1 (stereo partly specified) | 641 cells |
| O=C(OC1CN2CCC1CC2)c1ccc([N+](=O)[O-])cc1 (stereo unspecified) | 726 cells |
| CC(=O)Nc1ccc([As](=O)(O)O)c(O)c1 | 696 cells |
| COc1ccc2c(c1O)-c1c(O)c(OC)cc3c1[C@H](C2)[N+](C)(C)CC3.O=[N+]([O-])c1cc([N+](=O)[O-])c([O-])c([N+](=O)[O-])c1[O-] | 751 cells |
| CC(=O)Nc1ccc(Oc2c([N+](=O)[O-])cc([N+](=O)[O-])cc2[N+](=O)[O-])cc1 | 673 cells |
| O=P1(Nc2nc3ccc(Cl)cc3s2)COc2ccccc2O1 (stereo unspecified) | 704 cells |
| CCOc1ccc(C2=NCC(CBr)S2)cc1 (stereo unspecified) | 679 cells |
| CC(C)(C)C(=O)NC(Sc1ccccc1)C(Cl)(Cl)Cl (stereo unspecified) | 695 cells |
| CC(C)c1ccc(OP(C)(=O)Nc2ccc(SC(F)(F)F)cc2)cc1 (stereo unspecified) | 339 cells |
| CCN(CC)CCCOC(=O)C(O)(c1ccccc1)C1CCCCC1 (stereo unspecified) | 567 cells |
| CC(=O)NC(SC(=S)N(CC(C)C)CC(C)C)C(Cl)(Cl)Cl (stereo unspecified) | 728 cells |
| Cc1ccc(OP(=O)(Nc2ccccn2)Oc2ccc(C)cc2)cc1 | 663 cells |
| Cc1ccccc1OP(=O)(Nc1ccccn1)Oc1ccccc1C | 697 cells |
| O=[N+]([O-])c1cc([N+](=O)[O-])c(OC2CCCCC2O)c([N+](=O)[O-])c1 (stereo unspecified) | 794 cells |
| O=c1c2cc([N+](=O)[O-])ccc2[nH]c2c([N+](=O)[O-])cc([N+](=O)[O-])cc12 | 731 cells |
| CCCCCOc1ccc(NP(C)(=O)Oc2ccc(Cl)cc2Cl)cc1 (stereo unspecified) | 684 cells |
| CN(C)C(=O)Oc1noc2ccccc12 | 684 cells |
| c1ccc(-c2nn[nH]n2)c(-c2nn[nH]n2)c1 | 688 cells |
| Cc1ccc(NP(=O)(Oc2cccc(C)c2)Oc2cccc(C)c2)nc1 | 715 cells |
| CCNC(=S)/N=C(\N)N[N+](=O)[O-] | 705 cells |
| O=C(NC1CCS(=O)(=O)C1)NP(=S)(Oc1ccccc1)Oc1ccccc1 (stereo unspecified) | 673 cells |
| COc1ccc(OP(C)(=O)Nc2ccc(SC(F)(F)F)cc2)cc1 (stereo unspecified) | 691 cells |
| CCOC(=O)c1ccc(NP(C)(=O)Oc2ccc(F)cc2)cc1 (stereo unspecified) | 745 cells |

| Structure (SMILES) | cell count |
| --- | --- |
| O=[N+]([O-])c1cc([N+](=O)[O-])c(CCN2CCOCC2)c([N+](=O)[O-])c1 | 841 cells |
| Nc1cccc2ccc([As](=O)(O)O)cc12 | 723 cells |
| CP(=O)(Nc1ccc(Cl)cc1Cl)Oc1ccccc1 (stereo unspecified) | 688 cells |
| CP(=O)(OCCOc1ccccc1)OCCOc1ccccc1 | 679 cells |
| CCN(N=Nc1nonc1N)c1nonc1N | 654 cells |
| O=P(Nc1nc2ccc(Cl)cc2s1)(c1ccccc1)c1ccccc1 | 518 cells |
| Cc1cc(C)cc(OP(C)(=O)Nc2cccc(C(F)(F)F)c2)c1 (stereo unspecified) | 707 cells |
| CC(=O)Nc1ccc([As](=O)(O)O)cc1 | 667 cells |
| O=C(O)c1ccccc1[As](=O)(O)O | 719 cells |
| COc1ccc(OP(C)(=O)Nc2ccccc2Br)cc1 (stereo unspecified) | 594 cells |
| Cc1cc(SC(NC(=O)c2ccc(F)cc2)C(Cl)(Cl)Cl)ncn1 (stereo unspecified) | 600 cells |
| CCOP(=O)(Nc1ccccc1)OCC | 772 cells and 728 cells |
| Cc1ccc(NP(=O)(Oc2ccccc2F)Oc2ccccc2F)nc1 | 678 cells |
| Oc1ccccc1CNc1ccccn1 | 800 cells |
| O=C(NC(Sc1ccncn1)C(Cl)(Cl)Cl)c1ccccc1 (stereo unspecified) | 588 cells |
| Nc1cc(N)c2nonc2c1[N+](=O)[O-] | 687 cells |
| O=[N+]([O-])c1cc([N+](=O)[O-])c(Nc2ccccn2)c([N+](=O)[O-])c1 | 589 cells |
| CP(=O)(Nc1ccccn1)Oc1ccccc1 (stereo unspecified) | 544 cells |
| COc1ccccc1OP(C)(=O)Nc1ccc(Br)cc1 (stereo unspecified) | 725 cells |
| Cc1ccc(N/C(=N/P(=O)(N2CCOCC2)N2CCOCC2)N2CCOCC2)cc1 | 704 cells |
| NC(=O)c1cc([N+](=O)[O-])cc([N+](=O)[O-])c1N | 724 cells |
| CN1CCCC(OC(=O)C(c2ccccc2)c2ccccc2)C1 (stereo unspecified) | 707 cells |
| Clc1ccc(Cl)c(NC2=NCC(CBr)S2)c1 (stereo unspecified) | 722 cells |
| CN(C)CCOC(=O)C(O)(c1ccccc1)C1CCCC1 (stereo unspecified) | 774 cells |

| Structure (SMILES) | cell count |
| --- | --- |
| COc1ccccc1OP(=O)(Nc1ccc(C)cn1)Oc1ccccc1OC | 717 cells |
| COc1ccc(OP(C)(=O)Nc2ccccn2)cc1 (stereo unspecified) | 746 cells |
| Cc1ccc(OP(=O)(Nc2nccs2)Oc2ccc(C)cc2)cc1 | 766 cells |
| CCN(/C(=N/P(=O)(N1CCOCC1)N1CCOCC1)N1CCOCC1)c1ccc(OC)cc1 | 723 cells |
| COc1ccccc1OP(C)(=O)Nc1ccccc1Br (stereo unspecified) | 714 cells |
| CC(C)(C)c1ccc(OP(C)(=O)O)cc1 | 835 cells |
| Nc1ccc([As](=O)(O)c2ccc(N)cc2)cc1 | 697 cells |
| C[N+]1=C2C=CC=CC=C2SC12C([N+](=O)[O-])=CC([N+](=O)[O-])=C[C-]2[N+](=O)[O-] (stereo unspecified) | 805 cells |
| CN(C)C(=O)c1c([N+](=O)[O-])cc([N+](=O)[O-])cc1[N+](=O)[O-] | 772 cells |
| CC(C)=N/N=C(\N)N[N+](=O)[O-] | 654 cells |
| CN(C)C(=O)OCCc1n(C)cc[n+]1C | 629 cells |
| COc1ccc(C2=NCC(CBr)S2)cc1 (stereo unspecified) | 703 cells |
| COc1ccc(OP(C)(=O)Nc2ccc(Br)cc2)cc1 (stereo unspecified) | 610 cells |
| Cc1ccc(NP(=O)(Oc2ccccc2)Oc2ccccc2)nc1 | 686 cells |
| CCc1ccc(OP(C)(=O)Nc2cccnc2)cc1 (stereo unspecified) | 719 cells |
| O=[N+]([O-])c1cc([N+](=O)[O-])c(CCNc2ccccc2)c([N+](=O)[O-])c1 | 752 cells |
| O=[N+]([O-])c1cccc2n[nH]nc12 | 789 cells |
| O=C(OCCCN1CCCC1)C(O)(c1ccccc1)C1CCCCC1 (stereo unspecified) | 722 cells |
| O=[N+]([O-])c1ncn(CCn2ncnc2[N+](=O)[O-])n1 | 699 cells |
| CC(C)(C)C(=O)NC(Sc1ccncn1)C(Cl)(Cl)Cl (stereo unspecified) | 681 cells |
| O=C(O)CNc1ccc([As](=O)(O)O)cc1 | 708 cells |
| O=[N+]([O-])c1cccc(NC2=NCC(CBr)S2)c1 (stereo unspecified) | 784 cells |
| CP(=O)(OC12CC3CC(CC(C3)C1)C2)OC12CC3CC(CC(C3)C1)C2 | 762 cells |
| CCOC(=O)c1ccc(NP(C)(=O)Oc2ccc(Cl)cc2)cc1 (stereo unspecified) | 631 cells |

| Structure (SMILES) | cell count |
| --- | --- |
| O=C(Nc1cc([As](=O)(O)O)ccc1O)c1ccccc1 | 736 cells |
| CP(=S)(Nn1cnnc1)Oc1ccccc1 (stereo unspecified) | 701 cells |
| CCOC(=O)Nc1cccc([As](=O)(O)O)c1 | 846 cells |
| O=P(Nc1ccccn1)(c1cccc2ccccc12)c1cccc2ccccc12 | 679 cells |
| Cc1cc(SC(NC=O)C(Cl)(Cl)Cl)ncn1 (stereo unspecified) | 678 cells |
| COc1ccccc1OP(C)(=O)Nc1ccccc1 (stereo unspecified) | 751 cells |
| CP(=O)(Nc1ccccc1Br)Oc1ccccc1 (stereo unspecified) | 727 cells |
| O=[N+]([O-])c1ccc(Nc2ccc(Oc3ccc([N+](=O)[O-])cc3[N+](=O)[O-])cc2)c([N+](=O)[O-])c1 | 625 cells |
| CCOC(=O)Nc1ccc([As](=O)(O)O)c(O)c1 | 742 cells |
| CCCCOc1ccc(C(=O)NCC2(N3CCCCC3)CCCCC2)cc1OC | 752 cells |
| Cc1cc(SC(NC(=O)c2ccccc2)C(Cl)(Cl)Cl)nc(C(C)C)n1 (stereo unspecified) | 621 cells |
| O=C(OC1CN2CCC1CC2)c1cccc([N+](=O)[O-])c1 (stereo unspecified) | 827 cells |
| CCOC(=O)c1ccc(NC(=O)C(C)(CCl)SC)cc1 (stereo unspecified) | 690 cells |
| CCOC(=O)c1ccc(NP(C)(=O)Oc2ccc(OC)cc2)cc1 (stereo unspecified) | 519 cells |
| CCC(C)N(CC(C)C)C(=S)SC(NC(C)=O)C(Cl)(Cl)Cl (stereo unspecified) | 718 cells |
| CP(=O)(Nc1ccccn1)Oc1ccc(Cl)cc1 (stereo unspecified) | 777 cells |
| COP1(=S)c2c(C)nn(CCC#N)c2N=C(c2ccc(F)cc2)N1C (stereo unspecified) | 755 cells |
| Cc1cccc(C)c1OP(C)(=O)Nc1ccc(SC(F)(F)F)cc1 (stereo unspecified) | 690 cells |
| CP(=O)(Oc1ccccc1)OC(c1ccccc1)C(F)(F)F (stereo unspecified) | 673 cells |
| O=C(COc1ccccc1)OC1CN2CCC1CC2 (stereo unspecified) | 682 cells |
